Results are given in words; binding and its absence hold for the method and conditions named. Binding seen in cells or lysates may run through a third protein. Some binding calls cover weakened binding; strength is not graded here.
biological target: Pax2 (mouse (endogenous in VOT-N33)) (UniProt P32114); experiment: co-IP; nuclear extract of undifferentiated N33 cells, pre-cleared with protein G sepharose; immunoprecipitation with anti-Pax2 or anti-LSD1 antibody overnight, protein G Sepharose 2 h at 4°C; washes in 10 mM Tris-HCl pH 7.5, 75 mM NaCl, 1 mM EDTA, 6% glycerol, 1% NP-40, 1 mM DTT; western blot; rabbit IgG as negative control

Sequences of proteins named here, by UniProt entry; tags and fusion partners are left off.
UniProt P32114: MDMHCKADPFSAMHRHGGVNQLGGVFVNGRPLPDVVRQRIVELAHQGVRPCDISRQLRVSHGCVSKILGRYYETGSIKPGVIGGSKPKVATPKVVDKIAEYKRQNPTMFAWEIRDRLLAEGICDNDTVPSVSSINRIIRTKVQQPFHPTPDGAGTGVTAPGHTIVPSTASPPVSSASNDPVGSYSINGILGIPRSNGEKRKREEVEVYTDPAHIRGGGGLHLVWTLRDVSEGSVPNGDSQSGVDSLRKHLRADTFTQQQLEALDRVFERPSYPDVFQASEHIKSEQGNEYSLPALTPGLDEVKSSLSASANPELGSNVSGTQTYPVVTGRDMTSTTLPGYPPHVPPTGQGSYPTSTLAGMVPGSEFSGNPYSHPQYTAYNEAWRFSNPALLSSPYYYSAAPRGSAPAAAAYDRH
UniProt P70288: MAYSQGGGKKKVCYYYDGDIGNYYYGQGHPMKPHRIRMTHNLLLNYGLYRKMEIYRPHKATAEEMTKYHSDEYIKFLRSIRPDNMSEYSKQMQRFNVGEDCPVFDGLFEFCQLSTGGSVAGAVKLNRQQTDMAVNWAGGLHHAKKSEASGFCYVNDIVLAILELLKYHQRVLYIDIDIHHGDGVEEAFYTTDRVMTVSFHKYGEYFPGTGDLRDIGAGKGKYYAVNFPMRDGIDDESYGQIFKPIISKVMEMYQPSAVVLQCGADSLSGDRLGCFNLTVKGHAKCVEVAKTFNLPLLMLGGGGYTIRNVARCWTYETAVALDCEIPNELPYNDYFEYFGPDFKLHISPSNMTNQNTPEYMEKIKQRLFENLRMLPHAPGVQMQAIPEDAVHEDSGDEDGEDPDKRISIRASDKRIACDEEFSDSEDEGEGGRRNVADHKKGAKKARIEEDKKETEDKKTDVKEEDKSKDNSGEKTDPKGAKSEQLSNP
UniProt O09106: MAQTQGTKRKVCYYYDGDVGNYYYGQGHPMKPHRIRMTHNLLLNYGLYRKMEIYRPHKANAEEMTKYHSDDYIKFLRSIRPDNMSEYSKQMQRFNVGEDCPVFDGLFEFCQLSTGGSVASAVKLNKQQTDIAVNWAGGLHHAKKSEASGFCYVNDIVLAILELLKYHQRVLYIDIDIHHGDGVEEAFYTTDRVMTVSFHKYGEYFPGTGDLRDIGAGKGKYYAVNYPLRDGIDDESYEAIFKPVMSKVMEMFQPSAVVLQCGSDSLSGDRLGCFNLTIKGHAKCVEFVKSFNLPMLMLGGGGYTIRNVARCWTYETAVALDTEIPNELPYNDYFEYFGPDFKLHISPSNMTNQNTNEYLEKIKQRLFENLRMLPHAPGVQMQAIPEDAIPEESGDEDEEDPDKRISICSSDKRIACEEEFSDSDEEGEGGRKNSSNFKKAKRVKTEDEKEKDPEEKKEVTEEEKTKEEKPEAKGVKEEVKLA
UniProt Q6PDQ2: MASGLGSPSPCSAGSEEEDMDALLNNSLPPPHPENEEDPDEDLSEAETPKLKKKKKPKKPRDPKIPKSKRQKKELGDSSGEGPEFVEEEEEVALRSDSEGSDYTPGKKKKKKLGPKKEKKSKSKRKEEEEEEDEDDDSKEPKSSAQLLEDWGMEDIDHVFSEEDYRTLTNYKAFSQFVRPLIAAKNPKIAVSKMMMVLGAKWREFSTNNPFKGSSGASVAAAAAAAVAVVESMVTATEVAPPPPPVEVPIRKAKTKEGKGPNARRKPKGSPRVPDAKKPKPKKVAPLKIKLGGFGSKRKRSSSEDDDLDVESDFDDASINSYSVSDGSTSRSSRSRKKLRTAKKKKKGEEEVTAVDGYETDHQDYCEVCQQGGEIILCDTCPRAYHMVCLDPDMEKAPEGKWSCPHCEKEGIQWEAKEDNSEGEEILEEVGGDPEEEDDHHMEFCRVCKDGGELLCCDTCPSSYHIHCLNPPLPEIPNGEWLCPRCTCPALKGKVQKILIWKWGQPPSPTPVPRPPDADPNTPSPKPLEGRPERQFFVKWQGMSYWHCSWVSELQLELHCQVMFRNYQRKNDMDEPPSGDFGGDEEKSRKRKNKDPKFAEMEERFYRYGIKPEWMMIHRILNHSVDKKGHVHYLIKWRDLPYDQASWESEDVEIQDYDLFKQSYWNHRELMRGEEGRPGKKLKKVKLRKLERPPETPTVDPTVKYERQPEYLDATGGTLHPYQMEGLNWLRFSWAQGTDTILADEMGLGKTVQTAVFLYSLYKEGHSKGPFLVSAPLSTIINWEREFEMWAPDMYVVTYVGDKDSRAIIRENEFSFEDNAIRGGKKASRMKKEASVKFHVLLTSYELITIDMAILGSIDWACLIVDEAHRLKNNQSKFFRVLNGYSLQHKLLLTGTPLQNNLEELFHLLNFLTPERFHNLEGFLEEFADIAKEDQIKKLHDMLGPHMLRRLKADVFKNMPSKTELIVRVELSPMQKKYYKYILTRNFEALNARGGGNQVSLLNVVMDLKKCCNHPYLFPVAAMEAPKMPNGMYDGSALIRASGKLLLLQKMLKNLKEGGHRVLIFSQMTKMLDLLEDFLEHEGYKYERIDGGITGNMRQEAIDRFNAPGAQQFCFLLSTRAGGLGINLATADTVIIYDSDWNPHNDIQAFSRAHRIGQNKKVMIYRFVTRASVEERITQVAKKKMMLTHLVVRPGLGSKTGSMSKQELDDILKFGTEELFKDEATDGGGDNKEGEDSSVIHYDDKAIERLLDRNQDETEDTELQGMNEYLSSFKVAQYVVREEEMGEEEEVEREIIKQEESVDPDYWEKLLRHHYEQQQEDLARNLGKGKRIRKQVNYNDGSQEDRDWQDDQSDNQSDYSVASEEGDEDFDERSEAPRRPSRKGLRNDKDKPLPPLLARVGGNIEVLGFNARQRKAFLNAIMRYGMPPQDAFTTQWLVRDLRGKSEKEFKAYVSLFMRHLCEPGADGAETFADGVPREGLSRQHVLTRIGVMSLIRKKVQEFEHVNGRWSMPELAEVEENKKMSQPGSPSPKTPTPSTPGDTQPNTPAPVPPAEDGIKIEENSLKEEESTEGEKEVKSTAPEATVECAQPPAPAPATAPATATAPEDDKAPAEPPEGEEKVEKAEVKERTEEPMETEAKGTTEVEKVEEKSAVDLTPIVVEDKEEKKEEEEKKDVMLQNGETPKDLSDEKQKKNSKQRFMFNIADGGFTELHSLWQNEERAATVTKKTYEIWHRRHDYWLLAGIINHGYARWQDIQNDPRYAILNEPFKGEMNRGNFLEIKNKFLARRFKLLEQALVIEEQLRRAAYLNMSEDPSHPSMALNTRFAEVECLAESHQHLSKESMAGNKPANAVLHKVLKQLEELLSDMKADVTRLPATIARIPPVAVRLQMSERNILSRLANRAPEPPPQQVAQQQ
UniProt Q8K4B0: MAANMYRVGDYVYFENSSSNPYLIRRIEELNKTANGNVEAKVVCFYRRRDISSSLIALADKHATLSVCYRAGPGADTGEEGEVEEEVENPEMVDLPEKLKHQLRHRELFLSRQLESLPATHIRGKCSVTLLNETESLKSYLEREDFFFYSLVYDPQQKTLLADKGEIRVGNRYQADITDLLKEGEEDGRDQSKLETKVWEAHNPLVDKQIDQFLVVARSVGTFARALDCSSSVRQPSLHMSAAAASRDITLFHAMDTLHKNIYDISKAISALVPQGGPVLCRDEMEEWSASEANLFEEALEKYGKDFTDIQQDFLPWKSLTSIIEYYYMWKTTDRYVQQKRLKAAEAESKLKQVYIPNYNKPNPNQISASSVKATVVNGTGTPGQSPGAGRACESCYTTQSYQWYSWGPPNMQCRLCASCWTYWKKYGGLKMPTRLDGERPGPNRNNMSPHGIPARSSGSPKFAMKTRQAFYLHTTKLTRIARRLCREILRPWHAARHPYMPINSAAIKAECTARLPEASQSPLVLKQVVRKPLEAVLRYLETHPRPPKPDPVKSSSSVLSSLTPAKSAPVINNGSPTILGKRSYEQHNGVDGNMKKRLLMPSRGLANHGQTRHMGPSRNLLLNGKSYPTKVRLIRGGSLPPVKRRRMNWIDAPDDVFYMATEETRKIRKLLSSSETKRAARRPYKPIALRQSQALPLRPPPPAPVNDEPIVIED

binding, binds:
HDAC2 (from UniProt P70288 1-488) (enzyme)
HDAC1 (from UniProt O09106 1-482) (enzyme)
chromodomain-helicase-DNA-binding protein 4 (CHD4) (from UniProt Q6PDQ2 1-1915)
metastasis-associated 1 (MTA1) (from UniProt Q8K4B0 1-715)

Reference: PMC5784988
